PubChem BioAssay AID602196 – INSERM | 2012
Shown is one part, drawn at random, of about 23,000 reagents. 455 of them (2%) count as active. 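Active includes both protection and sensitisation; some change values fall well beyond the stated -50 to +50 range.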 Further read-outs or replicates are left out here. Not stated in the record: the amount of reagent.

Test: 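Knock-downs that protect lung cancer cells from cisplatin or sensitise them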
Cells: human A549 lung cancer cells
Reagent: siRNA pair against human genes
Timing: 48 h transfection before cisplatin; time from cisplatin to read-out not stated
Conditions: cisplatin at a dose killing half of control-siRNA cells; exact dose and duration not given
Detection: 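Shift in cisplatin death relative to control siRNA, from -50 (all cells die) to +50 (no cells die); siRNAs harmful on their own scored 0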
Reading the numbers: two-siRNA summed score (-2 to +2): higher = both siRNAs protect from cisplatin killing; -2 means both sensitise; mean protection from cisplatin (shift in death): higher = protection from cisplatin killing
Rule for the call: 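Each siRNA scores 0 if harmful alone by LDH or WST-1, otherwise +1 if it reduces and -1 if it increases cisplatin killing; a gene is active when both siRNAs agree (sum +2 or -2)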
Calls: active = both siRNAs shift cisplatin killing the same way; inactive = no consistent shift, or siRNA harmful alone

SLC12A6: two-siRNA summed score (-2 to +2) = 0; mean protection from cisplatin (shift in death) (%) = 3.9; outcome = inactive
CDC14B: two-siRNA summed score (-2 to +2) = 0; mean protection from cisplatin (shift in death) (%) = -3.5; outcome = inactive
DCLK2: two-siRNA summed score (-2 to +2) = 2; mean protection from cisplatin (shift in death) (%) = 19.2; outcome = active
FADS1: two-siRNA summed score (-2 to +2) = 1; mean protection from cisplatin (shift in death) (%) = 8.4; outcome = inactive
IRF5: two-siRNA summed score (-2 to +2) = 1; mean protection from cisplatin (shift in death) (%) = 20.7; outcome = inactive
THUMPD1: two-siRNA summed score (-2 to +2) = 0; mean protection from cisplatin (shift in death) (%) = -4.8; outcome = inactive
LOC401616: two-siRNA summed score (-2 to +2) = 0; mean protection from cisplatin (shift in death) (%) = 1.6; outcome = inactive
LOC441337: two-siRNA summed score (-2 to +2) = 0; mean protection from cisplatin (shift in death) (%) = -0.7; outcome = inactive
LINC00301: two-siRNA summed score (-2 to +2) = 0; mean protection from cisplatin (shift in death) (%) = -2; outcome = inactive
LOC388643: two-siRNA summed score (-2 to +2) = 0; mean protection from cisplatin (shift in death) (%) = 7.7; outcome = inactive
MAT2A: two-siRNA summed score (-2 to +2) = -1; mean protection from cisplatin (shift in death) (%) = -9.5; outcome = inactive
HDAC11: two-siRNA summed score (-2 to +2) = 0; mean protection from cisplatin (shift in death) (%) = 11.6; outcome = inactive
NDUFAF3: two-siRNA summed score (-2 to +2) = 0; mean protection from cisplatin (shift in death) (%) = 1.1; outcome = inactive
LOC388097: two-siRNA summed score (-2 to +2) = 0; mean protection from cisplatin (shift in death) (%) = 6.4; outcome = inactive
ZIK1: two-siRNA summed score (-2 to +2) = 0; mean protection from cisplatin (shift in death) (%) = 4.7; outcome = inactive
CACNA1G: two-siRNA summed score (-2 to +2) = 0; mean protection from cisplatin (shift in death) (%) = -13.4; outcome = inactive
SPEN: two-siRNA summed score (-2 to +2) = -1; mean protection from cisplatin (shift in death) (%) = -11; outcome = inactive
FBLN5: two-siRNA summed score (-2 to +2) = 0; mean protection from cisplatin (shift in death) (%) = 0.9; outcome = inactive
GRK7: two-siRNA summed score (-2 to +2) = 1; mean protection from cisplatin (shift in death) (%) = 11.9; outcome = inactive
LOC400053: two-siRNA summed score (-2 to +2) = 1; mean protection from cisplatin (shift in death) (%) = 9.2; outcome = inactive
LINC02072: two-siRNA summed score (-2 to +2) = 0; mean protection from cisplatin (shift in death) (%) = 11.5; outcome = inactive

As entered above:
LOC388643, mean protection from cisplatin (shift in death) (%): 7.7
Value for IRF5 in “outcome”: inactive
Under “two-siRNA summed score (-2 to +2)”, LINC02072 has 0
